Results published in publication PMC5809584, “Plastic roles of phenylalanine and tyrosine residues of TLS/FUS in complex formation with the G-quadruplexes of telomeric DNA and TERRA”.
For at least one entry, the source does not settle the construct or the ends of the probe. At least one verdict rests on a figure or table, not on a statement of the authors. Where a protein sequence is shown, tags need not be part of it.

Molecular target: T1, RGG3 of TLS/FUS (UniProt P35637)
T1 sequence (looked up, limits assumed): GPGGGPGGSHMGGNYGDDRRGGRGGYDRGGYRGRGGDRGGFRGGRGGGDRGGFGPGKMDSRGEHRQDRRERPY
Test: fluorescence anisotropy
Conditions: 450 nM RNA, 1:0 to 1:3; FA: 20 C (nucleic acids annealed in 20 mM K-phosphate pH 6.2, 50 mM KCl); recombinant protein; label: 5' FITC

UAGGGUUAGGGU [FITC-TERRA12]
binding result: binds
